Here are results for one substance from publication PMC10070108.

Protein sequences, listed by entry. Tags and fused reporters are not part of them.
UniProt E9Q557: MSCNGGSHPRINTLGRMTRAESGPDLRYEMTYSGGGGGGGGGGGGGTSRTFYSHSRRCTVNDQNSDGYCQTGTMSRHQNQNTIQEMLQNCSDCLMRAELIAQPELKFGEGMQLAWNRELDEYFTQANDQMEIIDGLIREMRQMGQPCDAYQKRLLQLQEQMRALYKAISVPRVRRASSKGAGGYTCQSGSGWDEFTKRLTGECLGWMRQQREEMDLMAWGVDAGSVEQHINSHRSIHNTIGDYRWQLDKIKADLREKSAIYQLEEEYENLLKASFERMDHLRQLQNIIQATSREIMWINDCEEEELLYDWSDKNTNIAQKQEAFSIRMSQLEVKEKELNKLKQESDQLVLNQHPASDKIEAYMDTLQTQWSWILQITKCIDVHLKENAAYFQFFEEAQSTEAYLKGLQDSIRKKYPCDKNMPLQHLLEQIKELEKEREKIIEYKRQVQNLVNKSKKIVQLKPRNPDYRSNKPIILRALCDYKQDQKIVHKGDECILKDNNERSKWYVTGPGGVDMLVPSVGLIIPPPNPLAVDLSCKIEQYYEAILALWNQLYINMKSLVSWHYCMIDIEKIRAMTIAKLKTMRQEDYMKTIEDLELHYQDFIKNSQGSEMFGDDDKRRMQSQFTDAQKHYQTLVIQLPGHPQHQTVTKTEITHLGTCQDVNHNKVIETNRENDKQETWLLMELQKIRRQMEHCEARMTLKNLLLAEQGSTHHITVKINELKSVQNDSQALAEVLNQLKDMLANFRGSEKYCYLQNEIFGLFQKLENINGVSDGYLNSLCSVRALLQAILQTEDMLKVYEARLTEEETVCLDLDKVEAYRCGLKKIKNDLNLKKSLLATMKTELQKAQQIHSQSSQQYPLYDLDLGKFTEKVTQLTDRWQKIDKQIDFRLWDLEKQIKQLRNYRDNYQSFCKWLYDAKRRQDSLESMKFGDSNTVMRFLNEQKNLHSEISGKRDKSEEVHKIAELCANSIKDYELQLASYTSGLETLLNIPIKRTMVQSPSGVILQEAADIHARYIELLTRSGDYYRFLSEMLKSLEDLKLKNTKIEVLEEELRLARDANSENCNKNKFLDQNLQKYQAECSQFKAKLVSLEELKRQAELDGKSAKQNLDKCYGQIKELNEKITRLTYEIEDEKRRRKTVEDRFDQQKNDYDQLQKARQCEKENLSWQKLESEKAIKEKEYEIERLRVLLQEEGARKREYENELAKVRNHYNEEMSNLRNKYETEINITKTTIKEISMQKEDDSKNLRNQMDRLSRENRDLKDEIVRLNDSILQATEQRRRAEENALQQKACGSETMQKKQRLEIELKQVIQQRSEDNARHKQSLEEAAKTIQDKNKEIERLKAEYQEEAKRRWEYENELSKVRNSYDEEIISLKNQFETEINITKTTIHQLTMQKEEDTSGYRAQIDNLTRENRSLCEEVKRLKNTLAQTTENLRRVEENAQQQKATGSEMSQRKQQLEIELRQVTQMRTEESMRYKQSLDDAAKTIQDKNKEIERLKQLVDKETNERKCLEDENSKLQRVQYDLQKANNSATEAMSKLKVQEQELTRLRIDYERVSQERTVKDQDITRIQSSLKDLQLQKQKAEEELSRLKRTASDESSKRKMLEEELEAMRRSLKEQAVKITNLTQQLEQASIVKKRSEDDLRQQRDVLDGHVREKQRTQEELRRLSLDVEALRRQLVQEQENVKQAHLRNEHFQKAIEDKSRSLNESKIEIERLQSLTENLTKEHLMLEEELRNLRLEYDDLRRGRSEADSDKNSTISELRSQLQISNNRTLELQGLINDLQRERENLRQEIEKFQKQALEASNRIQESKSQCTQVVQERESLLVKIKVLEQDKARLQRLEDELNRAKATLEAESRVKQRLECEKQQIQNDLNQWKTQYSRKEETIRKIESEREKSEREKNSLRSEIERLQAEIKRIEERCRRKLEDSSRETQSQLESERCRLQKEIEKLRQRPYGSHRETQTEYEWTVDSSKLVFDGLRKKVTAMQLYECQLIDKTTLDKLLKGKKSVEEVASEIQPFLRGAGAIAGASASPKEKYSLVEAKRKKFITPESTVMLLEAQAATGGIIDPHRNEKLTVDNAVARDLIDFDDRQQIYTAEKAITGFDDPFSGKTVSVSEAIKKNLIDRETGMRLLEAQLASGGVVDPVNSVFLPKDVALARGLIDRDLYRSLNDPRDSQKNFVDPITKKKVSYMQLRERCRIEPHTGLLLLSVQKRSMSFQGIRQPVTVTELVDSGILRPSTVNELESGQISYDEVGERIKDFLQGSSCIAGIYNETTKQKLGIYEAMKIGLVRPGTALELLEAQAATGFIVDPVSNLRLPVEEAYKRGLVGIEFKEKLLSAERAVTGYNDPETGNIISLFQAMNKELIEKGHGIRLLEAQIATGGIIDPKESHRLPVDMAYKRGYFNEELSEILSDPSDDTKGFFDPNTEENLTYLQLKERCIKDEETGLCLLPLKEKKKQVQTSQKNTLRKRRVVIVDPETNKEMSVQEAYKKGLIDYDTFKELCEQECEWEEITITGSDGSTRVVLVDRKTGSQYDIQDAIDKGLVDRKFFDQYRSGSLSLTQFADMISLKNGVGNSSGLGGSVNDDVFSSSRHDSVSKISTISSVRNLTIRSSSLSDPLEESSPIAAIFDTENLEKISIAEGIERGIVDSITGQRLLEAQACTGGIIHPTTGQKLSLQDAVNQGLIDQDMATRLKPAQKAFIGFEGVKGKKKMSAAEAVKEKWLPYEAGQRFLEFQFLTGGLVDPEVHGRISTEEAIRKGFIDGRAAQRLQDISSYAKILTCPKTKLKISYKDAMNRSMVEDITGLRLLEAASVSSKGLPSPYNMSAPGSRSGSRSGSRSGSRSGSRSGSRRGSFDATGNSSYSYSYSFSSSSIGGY

These are yes or no findings as the source states them, for the method shown. In cells and extracts the contact can be indirect. Some binding calls cover weakened binding; strength is not graded here.

In assay [1] the target is T1, desmoglein 2 (mouse (endogenous in HL-1)) (UniProt O55111).
T1 sequence: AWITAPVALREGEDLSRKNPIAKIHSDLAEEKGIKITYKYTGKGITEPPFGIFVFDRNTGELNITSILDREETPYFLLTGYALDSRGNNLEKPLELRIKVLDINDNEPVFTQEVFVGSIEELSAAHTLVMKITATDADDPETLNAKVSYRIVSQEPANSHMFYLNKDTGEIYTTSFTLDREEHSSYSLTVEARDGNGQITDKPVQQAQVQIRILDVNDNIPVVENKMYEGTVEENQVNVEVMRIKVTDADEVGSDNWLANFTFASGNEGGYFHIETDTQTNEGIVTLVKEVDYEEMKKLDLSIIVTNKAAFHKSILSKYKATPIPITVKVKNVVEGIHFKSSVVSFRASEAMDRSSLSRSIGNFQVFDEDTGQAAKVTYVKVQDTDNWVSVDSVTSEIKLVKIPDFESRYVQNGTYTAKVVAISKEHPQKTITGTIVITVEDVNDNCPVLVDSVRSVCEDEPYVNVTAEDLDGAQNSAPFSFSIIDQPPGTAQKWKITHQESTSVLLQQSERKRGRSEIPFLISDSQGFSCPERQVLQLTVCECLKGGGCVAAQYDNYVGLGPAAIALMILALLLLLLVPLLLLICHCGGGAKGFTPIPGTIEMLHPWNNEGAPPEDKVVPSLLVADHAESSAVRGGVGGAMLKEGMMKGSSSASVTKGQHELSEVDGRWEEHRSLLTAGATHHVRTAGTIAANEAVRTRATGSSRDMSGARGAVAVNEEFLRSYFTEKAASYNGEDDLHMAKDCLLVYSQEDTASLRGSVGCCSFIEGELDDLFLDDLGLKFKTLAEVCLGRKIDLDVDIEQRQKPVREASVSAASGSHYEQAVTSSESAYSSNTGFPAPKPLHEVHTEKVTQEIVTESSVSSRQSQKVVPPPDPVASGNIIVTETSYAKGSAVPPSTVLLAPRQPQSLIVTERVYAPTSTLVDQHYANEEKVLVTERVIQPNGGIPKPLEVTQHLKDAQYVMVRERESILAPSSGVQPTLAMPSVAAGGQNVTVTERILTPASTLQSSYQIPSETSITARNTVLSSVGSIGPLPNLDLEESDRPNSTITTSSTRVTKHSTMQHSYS
Nature of the assay: co-IP; DSG2 immunoprecipitated from HL-1 lysates (RIPA lysis buffer); 1 ug antibody to 1.5 mg lysate overnight at 4°C, Protein G Dynabeads, washes incl. 2 M urea buffer; immunoblots for EGFR, PG, DP, PKP2; cells with or without erlotinib (complex not altered). For orientation: In western blotting, separated proteins are transferred to a membrane and probed.

Assay [2] concerns the target desmoplakin (mouse (endogenous in HL-1)) (UniProt E9Q557). Nature of the assay: co-IP; DP immunoprecipitated from HL-1 lysates (RIPA lysis buffer); 1 ug antibody to 1.5 mg lysate overnight at 4°C, Protein G Dynabeads, washes incl. 2 M urea buffer; immunoblots for EGFR, DSG2, PKP2, PG; cells treated with vehicle, erlotinib or PP2 (no significant changes).

For the substance “epidermal growth factor receptor (from UniProt Q01279 25-1210)”, the binding result in assay [1] and in assay [2] was “binds” each time.
